In patent US20160289316A1 (STOWERS INSTITUTE FOR MEDICAL RESEARCH, published 2016):
Results are given in words; binding and its absence hold for the method and conditions named. Some entries that bind do so weakly or less than the wild type.

Protein sequences, listed by entry. Tags and fused reporters are not part of them.
UniProt O75197: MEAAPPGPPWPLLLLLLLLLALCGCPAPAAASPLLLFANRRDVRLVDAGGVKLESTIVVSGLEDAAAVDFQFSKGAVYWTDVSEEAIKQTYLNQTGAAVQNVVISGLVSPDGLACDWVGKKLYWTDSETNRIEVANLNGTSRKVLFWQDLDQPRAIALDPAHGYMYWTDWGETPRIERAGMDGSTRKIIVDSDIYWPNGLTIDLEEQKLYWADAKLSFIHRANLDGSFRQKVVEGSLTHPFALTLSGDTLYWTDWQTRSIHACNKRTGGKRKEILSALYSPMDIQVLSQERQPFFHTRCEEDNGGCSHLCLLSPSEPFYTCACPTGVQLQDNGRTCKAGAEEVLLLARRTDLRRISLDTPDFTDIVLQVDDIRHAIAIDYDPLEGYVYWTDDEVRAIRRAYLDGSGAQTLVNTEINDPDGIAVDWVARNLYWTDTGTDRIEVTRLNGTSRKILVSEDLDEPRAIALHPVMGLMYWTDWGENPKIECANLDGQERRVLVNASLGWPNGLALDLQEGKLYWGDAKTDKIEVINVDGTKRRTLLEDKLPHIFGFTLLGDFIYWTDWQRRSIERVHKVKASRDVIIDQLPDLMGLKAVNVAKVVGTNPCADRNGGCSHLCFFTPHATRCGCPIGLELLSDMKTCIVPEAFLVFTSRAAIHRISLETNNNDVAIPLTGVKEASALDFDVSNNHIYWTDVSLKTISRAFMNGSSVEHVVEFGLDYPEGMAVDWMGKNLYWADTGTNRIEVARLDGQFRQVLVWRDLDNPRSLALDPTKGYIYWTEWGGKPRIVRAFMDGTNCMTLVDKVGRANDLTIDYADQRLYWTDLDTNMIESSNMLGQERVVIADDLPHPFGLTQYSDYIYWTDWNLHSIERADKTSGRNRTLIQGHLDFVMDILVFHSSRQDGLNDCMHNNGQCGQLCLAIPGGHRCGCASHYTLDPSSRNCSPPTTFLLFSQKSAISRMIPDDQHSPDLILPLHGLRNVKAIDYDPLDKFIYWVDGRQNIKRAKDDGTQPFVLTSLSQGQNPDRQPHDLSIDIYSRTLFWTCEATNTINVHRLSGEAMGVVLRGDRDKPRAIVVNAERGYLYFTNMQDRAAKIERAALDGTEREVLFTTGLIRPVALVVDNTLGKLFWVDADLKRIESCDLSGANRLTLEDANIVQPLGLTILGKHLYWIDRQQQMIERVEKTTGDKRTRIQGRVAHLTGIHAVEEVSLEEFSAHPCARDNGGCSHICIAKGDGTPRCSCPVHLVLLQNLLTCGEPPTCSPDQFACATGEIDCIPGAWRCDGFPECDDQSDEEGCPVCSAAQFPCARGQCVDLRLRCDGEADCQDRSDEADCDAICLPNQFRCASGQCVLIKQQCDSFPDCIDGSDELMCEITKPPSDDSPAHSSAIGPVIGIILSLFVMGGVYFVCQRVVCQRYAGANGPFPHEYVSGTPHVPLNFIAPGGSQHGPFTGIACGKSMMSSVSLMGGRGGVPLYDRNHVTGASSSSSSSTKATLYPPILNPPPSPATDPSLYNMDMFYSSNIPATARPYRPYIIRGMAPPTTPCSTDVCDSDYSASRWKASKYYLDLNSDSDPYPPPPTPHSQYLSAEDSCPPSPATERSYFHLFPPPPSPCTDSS

Key:
LRP5-Myc (human) [1] = target: LRP5-Myc (human) (UniProt O75197); assay: immunoprecipitation (FIG. 2H)
LRP5-Myc (human) [2] = target: LRP5-Myc (human) (UniProt O75197); assay: immunoprecipitation
LRP5-Myc (human) [3] = target: LRP5-Myc (human) (UniProt O75197); assay: immunoprecipitation, anti-Flag M2 affinity gel, 293 cell supernatants (FIG. 2H)

Measured: binding

B1: SOST-Flag (ligand, mouse, UniProt Q99P68 24-211, looked up)
chain: QGWQAFRNDATEVIPGLGEYPEPPPENNQTMNRAENGGRPPHHPYDAKDVSEYSCRELHYTRFLTDGPCRSAKPVTELVCSGQCGPARLLPNAIGRVKWWRPNGPDFRCIPDRYRAQRVQLLCPGGAAPRSRKVRLVASCKCKRLTRFHNQSELKDFGPETARPQKGRKPRPGARGAKANQAELENAY
notes: mature; This entry was not used because neither its species nor its tie to the assay construct is stated; also called pCS2+SOST; not shown: Flag tag at the 3' end of the reading frame
binds: all assays above
